The values below come from the supplement of paper PMC12819154, “High-throughput peptide-centric local stability assay extends protein–ligand identification to membrane proteins, tissues and bacteria” (Nature Structural & Molecular Biology, 2025).

The chains behind the UniProt entries cited, without tags or fusion partners. Where a name states a change or a piece, a line headed by the entry shows the natural chain unless it says otherwise.
UniProt Q8VEA4: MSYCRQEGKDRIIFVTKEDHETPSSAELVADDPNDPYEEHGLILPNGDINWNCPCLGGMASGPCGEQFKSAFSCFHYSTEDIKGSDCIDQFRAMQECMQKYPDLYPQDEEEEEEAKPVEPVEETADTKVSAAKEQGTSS
UniProt Q8R4P9: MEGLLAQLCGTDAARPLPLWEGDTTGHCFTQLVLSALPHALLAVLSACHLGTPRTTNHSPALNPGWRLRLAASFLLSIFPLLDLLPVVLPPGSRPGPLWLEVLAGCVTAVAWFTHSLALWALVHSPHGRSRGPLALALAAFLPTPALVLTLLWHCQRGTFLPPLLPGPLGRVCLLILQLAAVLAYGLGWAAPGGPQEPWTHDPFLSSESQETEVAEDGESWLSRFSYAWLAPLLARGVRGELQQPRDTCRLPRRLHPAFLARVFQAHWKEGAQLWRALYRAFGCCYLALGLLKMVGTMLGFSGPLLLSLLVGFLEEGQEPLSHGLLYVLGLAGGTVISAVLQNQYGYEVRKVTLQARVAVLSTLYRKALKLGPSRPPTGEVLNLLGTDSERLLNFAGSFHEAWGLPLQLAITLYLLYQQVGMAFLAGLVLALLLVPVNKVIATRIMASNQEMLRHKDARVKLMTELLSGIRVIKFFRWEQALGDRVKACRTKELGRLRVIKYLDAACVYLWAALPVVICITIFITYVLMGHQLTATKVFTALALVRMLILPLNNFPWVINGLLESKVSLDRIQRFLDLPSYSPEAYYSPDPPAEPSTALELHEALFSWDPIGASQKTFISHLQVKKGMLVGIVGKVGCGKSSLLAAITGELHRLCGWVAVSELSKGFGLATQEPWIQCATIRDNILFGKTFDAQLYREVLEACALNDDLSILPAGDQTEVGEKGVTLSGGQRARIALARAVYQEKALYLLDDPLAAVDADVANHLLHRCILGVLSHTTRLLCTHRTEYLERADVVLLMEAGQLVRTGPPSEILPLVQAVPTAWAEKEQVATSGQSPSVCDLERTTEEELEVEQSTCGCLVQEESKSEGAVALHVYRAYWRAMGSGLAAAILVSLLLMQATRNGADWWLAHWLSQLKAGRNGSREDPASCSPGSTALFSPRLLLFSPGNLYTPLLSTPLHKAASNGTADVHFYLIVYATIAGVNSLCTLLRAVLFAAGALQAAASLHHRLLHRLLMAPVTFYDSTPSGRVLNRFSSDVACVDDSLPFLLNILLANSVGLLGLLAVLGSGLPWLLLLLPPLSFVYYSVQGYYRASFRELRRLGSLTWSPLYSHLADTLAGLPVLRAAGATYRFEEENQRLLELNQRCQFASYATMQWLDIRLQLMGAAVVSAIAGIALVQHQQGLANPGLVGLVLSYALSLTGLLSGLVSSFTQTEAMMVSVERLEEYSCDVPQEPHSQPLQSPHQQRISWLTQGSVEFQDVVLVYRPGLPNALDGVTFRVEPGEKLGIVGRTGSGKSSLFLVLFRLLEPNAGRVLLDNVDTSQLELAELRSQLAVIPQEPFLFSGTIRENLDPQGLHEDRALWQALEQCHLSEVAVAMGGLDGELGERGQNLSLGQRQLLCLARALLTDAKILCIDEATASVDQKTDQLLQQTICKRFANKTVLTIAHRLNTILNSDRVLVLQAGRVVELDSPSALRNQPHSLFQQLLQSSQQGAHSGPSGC
UniProt Q8R3Y8: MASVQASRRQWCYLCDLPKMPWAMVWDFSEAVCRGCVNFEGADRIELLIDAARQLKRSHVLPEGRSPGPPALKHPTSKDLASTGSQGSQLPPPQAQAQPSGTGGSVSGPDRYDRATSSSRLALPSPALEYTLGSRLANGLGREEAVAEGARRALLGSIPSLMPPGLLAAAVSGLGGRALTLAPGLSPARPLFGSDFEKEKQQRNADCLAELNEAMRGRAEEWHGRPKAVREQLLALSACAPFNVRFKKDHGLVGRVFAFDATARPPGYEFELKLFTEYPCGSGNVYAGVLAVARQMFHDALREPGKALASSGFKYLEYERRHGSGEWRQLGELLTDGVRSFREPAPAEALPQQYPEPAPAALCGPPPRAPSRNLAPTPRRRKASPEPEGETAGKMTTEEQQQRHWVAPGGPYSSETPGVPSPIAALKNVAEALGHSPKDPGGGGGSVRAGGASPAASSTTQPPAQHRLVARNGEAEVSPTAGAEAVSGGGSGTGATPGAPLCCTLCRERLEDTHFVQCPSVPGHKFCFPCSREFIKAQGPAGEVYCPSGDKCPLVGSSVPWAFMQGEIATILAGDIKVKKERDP
UniProt Q8VEH5: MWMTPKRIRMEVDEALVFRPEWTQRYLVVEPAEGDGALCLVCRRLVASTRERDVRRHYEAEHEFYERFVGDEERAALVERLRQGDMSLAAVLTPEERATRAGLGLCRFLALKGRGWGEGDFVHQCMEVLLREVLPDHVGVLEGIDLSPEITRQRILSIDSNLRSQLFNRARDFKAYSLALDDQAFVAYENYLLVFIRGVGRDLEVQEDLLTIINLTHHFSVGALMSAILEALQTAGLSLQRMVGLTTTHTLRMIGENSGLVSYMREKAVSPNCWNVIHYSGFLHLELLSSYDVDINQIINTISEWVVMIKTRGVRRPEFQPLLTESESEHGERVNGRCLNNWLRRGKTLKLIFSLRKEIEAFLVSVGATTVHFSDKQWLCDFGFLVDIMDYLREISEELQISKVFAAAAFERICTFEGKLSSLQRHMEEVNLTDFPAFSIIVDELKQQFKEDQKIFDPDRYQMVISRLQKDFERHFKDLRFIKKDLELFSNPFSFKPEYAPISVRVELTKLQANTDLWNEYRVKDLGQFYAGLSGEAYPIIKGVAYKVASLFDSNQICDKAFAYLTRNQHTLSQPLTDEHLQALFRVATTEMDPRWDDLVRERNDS
UniProt Q8VE52: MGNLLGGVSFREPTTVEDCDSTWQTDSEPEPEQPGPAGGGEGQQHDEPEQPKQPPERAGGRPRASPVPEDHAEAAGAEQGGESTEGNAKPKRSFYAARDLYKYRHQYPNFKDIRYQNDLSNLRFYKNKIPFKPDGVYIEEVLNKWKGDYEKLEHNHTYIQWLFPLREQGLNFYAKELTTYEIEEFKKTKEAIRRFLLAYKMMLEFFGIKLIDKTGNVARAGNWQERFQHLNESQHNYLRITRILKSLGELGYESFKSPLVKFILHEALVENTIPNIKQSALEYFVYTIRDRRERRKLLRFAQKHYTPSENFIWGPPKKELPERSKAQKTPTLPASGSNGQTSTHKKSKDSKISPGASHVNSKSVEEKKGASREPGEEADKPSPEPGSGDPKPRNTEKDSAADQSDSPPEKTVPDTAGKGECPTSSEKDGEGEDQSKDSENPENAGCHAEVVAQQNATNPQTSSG
UniProt Q8VE62: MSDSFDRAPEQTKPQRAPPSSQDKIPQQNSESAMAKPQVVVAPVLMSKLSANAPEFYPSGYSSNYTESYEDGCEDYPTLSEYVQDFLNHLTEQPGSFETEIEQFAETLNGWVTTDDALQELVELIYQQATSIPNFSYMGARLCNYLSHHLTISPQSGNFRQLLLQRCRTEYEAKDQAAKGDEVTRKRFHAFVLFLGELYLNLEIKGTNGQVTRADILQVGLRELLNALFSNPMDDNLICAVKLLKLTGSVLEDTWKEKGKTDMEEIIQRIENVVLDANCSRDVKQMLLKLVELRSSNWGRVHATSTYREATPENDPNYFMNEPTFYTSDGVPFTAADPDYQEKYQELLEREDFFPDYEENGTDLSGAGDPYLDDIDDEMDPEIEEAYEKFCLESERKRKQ
UniProt Q8VDZ4: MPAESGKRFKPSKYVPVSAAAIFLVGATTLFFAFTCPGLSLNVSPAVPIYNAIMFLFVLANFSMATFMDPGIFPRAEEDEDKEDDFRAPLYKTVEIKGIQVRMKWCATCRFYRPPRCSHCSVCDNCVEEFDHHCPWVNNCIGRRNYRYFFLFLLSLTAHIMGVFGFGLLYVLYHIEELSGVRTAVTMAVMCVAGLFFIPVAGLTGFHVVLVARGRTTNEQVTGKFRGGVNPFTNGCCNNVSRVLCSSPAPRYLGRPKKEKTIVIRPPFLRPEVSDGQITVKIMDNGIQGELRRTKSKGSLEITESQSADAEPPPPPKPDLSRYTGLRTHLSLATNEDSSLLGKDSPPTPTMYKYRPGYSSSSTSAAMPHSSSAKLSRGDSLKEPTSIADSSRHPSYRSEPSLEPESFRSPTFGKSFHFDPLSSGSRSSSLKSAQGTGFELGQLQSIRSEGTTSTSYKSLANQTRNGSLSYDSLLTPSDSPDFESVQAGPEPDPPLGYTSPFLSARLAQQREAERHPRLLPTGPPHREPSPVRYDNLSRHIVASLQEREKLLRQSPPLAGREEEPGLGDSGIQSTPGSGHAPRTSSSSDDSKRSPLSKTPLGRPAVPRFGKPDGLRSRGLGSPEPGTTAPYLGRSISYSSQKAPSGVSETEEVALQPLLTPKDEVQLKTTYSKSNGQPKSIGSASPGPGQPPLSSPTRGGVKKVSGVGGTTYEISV
UniProt Q8VCR7: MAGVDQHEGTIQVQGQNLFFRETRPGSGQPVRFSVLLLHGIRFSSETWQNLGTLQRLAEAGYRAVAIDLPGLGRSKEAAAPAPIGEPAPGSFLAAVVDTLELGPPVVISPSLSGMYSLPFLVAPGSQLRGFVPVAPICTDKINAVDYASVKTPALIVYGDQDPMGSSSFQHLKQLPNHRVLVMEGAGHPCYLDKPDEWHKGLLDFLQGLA
UniProt Q8VDU0: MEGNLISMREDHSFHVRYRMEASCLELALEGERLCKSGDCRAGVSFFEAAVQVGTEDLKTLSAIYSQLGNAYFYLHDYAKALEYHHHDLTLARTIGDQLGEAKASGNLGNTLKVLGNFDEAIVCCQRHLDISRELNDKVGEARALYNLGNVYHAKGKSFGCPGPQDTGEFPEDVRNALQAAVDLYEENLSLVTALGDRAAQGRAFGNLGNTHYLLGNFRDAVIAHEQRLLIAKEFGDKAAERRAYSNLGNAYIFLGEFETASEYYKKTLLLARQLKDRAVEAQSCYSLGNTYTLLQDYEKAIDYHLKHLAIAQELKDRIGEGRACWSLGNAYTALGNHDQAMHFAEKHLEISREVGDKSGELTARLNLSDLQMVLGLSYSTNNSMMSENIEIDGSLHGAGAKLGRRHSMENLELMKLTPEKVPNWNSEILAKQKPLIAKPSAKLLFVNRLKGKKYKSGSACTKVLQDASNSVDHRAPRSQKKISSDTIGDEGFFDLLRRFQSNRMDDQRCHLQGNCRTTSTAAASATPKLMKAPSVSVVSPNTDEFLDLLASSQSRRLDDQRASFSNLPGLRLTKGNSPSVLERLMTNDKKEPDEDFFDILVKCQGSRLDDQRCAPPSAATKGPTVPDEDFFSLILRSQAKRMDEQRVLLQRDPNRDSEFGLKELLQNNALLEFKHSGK
UniProt Q8R5F8: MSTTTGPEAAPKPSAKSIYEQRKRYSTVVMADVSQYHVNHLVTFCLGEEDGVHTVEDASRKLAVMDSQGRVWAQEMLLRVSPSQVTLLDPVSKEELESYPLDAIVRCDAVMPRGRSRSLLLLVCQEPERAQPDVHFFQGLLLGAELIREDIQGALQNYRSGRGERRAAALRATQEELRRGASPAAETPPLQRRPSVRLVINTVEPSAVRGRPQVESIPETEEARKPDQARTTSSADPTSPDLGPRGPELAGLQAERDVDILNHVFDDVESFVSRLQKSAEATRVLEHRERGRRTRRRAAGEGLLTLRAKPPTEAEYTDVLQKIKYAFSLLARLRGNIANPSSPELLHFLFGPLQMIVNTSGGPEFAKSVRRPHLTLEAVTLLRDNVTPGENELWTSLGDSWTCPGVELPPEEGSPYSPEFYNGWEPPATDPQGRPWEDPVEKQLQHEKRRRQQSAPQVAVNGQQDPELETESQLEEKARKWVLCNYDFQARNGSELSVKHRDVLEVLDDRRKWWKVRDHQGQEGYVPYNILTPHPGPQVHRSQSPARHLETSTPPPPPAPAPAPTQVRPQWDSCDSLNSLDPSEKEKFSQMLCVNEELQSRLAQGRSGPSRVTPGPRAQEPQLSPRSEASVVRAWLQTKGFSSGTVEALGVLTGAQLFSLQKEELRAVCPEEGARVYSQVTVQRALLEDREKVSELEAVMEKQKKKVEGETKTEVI
UniProt Q8VC52, whole entry: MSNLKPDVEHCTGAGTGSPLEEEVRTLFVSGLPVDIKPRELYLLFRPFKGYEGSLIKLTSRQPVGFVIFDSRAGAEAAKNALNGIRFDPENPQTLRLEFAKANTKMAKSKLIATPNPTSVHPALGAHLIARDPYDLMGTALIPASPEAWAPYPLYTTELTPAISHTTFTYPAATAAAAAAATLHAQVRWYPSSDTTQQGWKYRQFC
UniProt Q8VEB6: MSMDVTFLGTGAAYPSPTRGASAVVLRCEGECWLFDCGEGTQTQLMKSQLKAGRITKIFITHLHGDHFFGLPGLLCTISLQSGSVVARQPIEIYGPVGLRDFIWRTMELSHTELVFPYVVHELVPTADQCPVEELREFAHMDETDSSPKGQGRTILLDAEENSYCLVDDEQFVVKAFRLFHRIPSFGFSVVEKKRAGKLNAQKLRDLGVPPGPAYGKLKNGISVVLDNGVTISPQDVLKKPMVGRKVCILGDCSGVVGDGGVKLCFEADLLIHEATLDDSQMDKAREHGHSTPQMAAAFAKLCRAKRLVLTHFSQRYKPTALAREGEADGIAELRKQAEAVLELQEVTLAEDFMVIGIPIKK

Some of the results follow. Most values lie at the level of the controls, where differences are scatter.

Compound in this assay: CN[C@@H]1C[C@H]2O[C@@](C)([C@@H]1OC)n1c3ccccc3c3c4c(c5c6ccccc6n2c5c31)C(=O)NC4 [staurosporine]
As to the kind of experiment: log2 fold change of tryptic peptide abundance, ligand vs vehicle (limited proteolysis) (log2 ratio); higher = more trypsin-susceptible (destabilized). As to conditions: ligand concentration: 20 uM; sample: mouse liver crude lysate; replicate design: treated separately.
Regarding “UniProt Q8R3D1 (peptide sequence: RVEQTTLK, peptide start residue: 161)”, the log2 fold change is -0.2.

“UniProt Q8VEA4 (peptide sequence: SYCRQEGKDR, peptide start residue: 2)”: the log2 fold change is -0.496.

In the case of “UniProt Q8R4P9 (peptide sequence: QLLCLAR, peptide start residue: 1403)”, the log2 fold change is -0.0309.

Regarding “UniProt Q8VCB3 (peptide sequence: KLPIATVFTTHATLLGR, peptide start residue: 195)”, the log2 fold change is -0.202.

In the case of “UniProt Q8VE80 (peptide sequence: TLSFSHDGK, peptide start residue: 271)”, the log2 fold change was -0.193.

Regarding “UniProt Q8R3Y8 (peptide sequence: QLGELLTDGVR, peptide start residue: 329)”, the log2 fold change is -0.217.

As to “UniProt Q8VEH5 (peptide sequence: MVGLTTTHTLR, peptide start residue: 242)”, the log2 fold change worked out at 0.373.

In the case of “UniProt Q8VDK3 (peptide sequence: KNDRMTYEK, peptide start residue: 208)”, the log2 fold change is -0.0698.

Regarding “UniProt Q8R2U0 (peptide sequence: DLIHDVSFDFHGR, peptide start residue: 13)”, the log2 fold change was -0.312.

“UniProt Q8R2Y2 (peptide sequence: SDKLPEEMALLQGSNGDKR, peptide start residue: 616)”: the log2 fold change is 0.149.

As to “UniProt Q8VDQ8 (peptide sequence: ELEDLVR, peptide start residue: 340)”, the log2 fold change was -0.492.

For “UniProt Q8VE52 (peptide sequence: ISPGASHVNSK, peptide start residue: 352)”, the log2 fold change was -0.251.

As for “UniProt Q8VC16 (peptide sequence: MHTLVFLSTR, peptide start residue: 1)”, the log2 fold change came to 0.312.

With “UniProt Q8VC48 (peptide sequence: CVFNYVR, peptide start residue: 328)”, the log2 fold change is -0.128.

With “UniProt Q8VE62 (peptide sequence: FCLESER, peptide start residue: 390)”, the log2 fold change turned out to be 0.0708.

On to “UniProt Q8R5C5 (peptide sequence: GLLTIRYPMEHGVVR, peptide start residue: 67)”, for which the log2 fold change was -0.101.

For the target “UniProt Q8R344 (peptide sequence: VPQAKPVAVEEK, peptide start residue: 74)”, the log2 fold change was determined as 0.341.

Turning to “UniProt Q8VEH3 (peptide sequence: DLAGALDEK, peptide start residue: 133)”, the log2 fold change was -0.129.

Regarding “UniProt Q8VDD8 (peptide sequence: LFDAPLSISKR, peptide start residue: 210)”, the log2 fold change was determined as 0.218.

Take “UniProt Q8VDR9 (peptide sequence: INSLTFKK, peptide start residue: 1339)”: the log2 fold change came to 0.41.

Regarding “UniProt Q8VCA8 (peptide sequence: GHQAALGLMEDEQEQAQQLRK, peptide start residue: 361)”, the log2 fold change turned out to be 0.231.

For the target “UniProt Q8R313 (peptide sequence: KNNIFAQFR, peptide start residue: 766)”, the log2 fold change is 0.327.

As to “UniProt Q8VDZ4 (peptide sequence: SISYSSQK, peptide start residue: 634)”, the log2 fold change is -0.246.

In the case of “UniProt Q8R331 (peptide sequence: QLEALENDNFQDDPHAGLPQLGKR, peptide start residue: 31)”, the log2 fold change was -0.365.

On to “UniProt Q8R3J4 (peptide sequence: IEKHPDAANLLLR, peptide start residue: 164)”, for which the log2 fold change is -0.438.

As to “UniProt Q8R310 (peptide sequence: AYGGSATIVNKPK, peptide start residue: 238)”, the log2 fold change was determined as 0.296.

On to “UniProt Q8R4H7 (peptide sequence: LIVDVLSR, peptide start residue: 328)”, for which the log2 fold change amounted to 0.151.

As for “UniProt Q8VCR7 (peptide sequence: VLVMEGAGHPCYLDKPDEWHK, peptide start residue: 180)”, the log2 fold change is -0.063.

Take “UniProt Q8R317 (peptide sequence: QLIMANPQMQQLIQR, peptide start residue: 198)”: the log2 fold change came out at 0.462.

As to “UniProt Q8VDU0 (peptide sequence: ALEYHHHDLTLAR, peptide start residue: 81)”, the log2 fold change is -0.339.

On to “UniProt Q8R5F8 (peptide sequence: LVINTVEPSAVR, peptide start residue: 198)”, for which the log2 fold change is -0.00814.

“UniProt Q8VCN9 (peptide sequence: AEELHQR, peptide start residue: 193)”: the log2 fold change is -0.567.

For “UniProt Q8R5L3 (peptide sequence: NLLHAEFLR, peptide start residue: 823)”, the log2 fold change was 0.163.

“UniProt Q8R3T5 (peptide sequence: SQWMLEQLR, peptide start residue: 78)”: the log2 fold change was -0.211.

As for “UniProt Q8VC52 (peptide sequence: TLFVSGLPVDIKPR, peptide start residue: 26)”, the log2 fold change is -0.0517.

Regarding “UniProt Q8VEB6 (peptide sequence: EGEADGIAELRK, peptide start residue: 325)”, the log2 fold change worked out at 0.419.
